Test results published in patent US8859549B2, “Potassium channel modulators” (AbbVie, Inc., priority 2011, dated 2014).
At least one compound was matched to its structure with a doubt left.

Target: T1, KCNQ 2/3 channels (Homo sapiens, UniProt O43525+O43526)
T1 construct: expressed in transfected cells; host or cells: HEK293
Assay: KCNQ 2/3 channel activation, thallium flux FLIPR assay (BTC-AM dye)
Assay type: cell-based
Details: HEK293 cells stably expressing human KCNQ2 and KCNQ3 subunits; thallium-induced fluorescence, 4 min compound incubation
Experimental: The following example describes the assay that can be used to identify compounds that activate KCNQ 2/3 channels.
HEK293 cells stably expressing human KCNQ2 and KCNQ3 subunits were seeded in 96-well, black-walled, clear-bottomed, poly-D-lysine coated plates (BD Biosciences, Bedford, Mass.) at a density of 1×10^5 cells per well 24 hours before the assay. On the assay day, BTC-AM dye (Invitrogen, Carlsbad, Calif.) was loaded into the cells by replacing the cell culture medium with 55 μL/well of 3 μg/mL dye in DPBS. Dye loading was allowed to proceed for 2 hours at room temperature and then cells were washed twice with 50 μL/well of assay buffer (in mM: 10 HEPES pH 7.3, 5 glucose, 140 Na-gluconate, 2.5 K-gluconate, 3.6 Ca-gluconate, 2 MgSO4, 0.1 Ouabain) to remove unloaded dye. Cells were incubated in 50 μL of assay buffer before loading onto a FLIPR system (Molecular Devices, Sunnyvale, Calif.). Various concentrations of compounds to be assayed were added to the cells in 50 μL of assay buffer and incubated for 4 minutes. The fluorescence signal was initiated by adding 100 μL of assay buffer containing 6 mM TlNO3 and 10 mM K2SO4. […] Fluorescent signals were recorded for 3 minutes. […] The maximum response for each test compound was determined relative to the response produced by 10 μM retigabine. […]

CC(C)[C@H]1CC[C@H](C)C[C@@H]1OC(=O)NCc1nn(NC(=O)Cc2ccc(Cl)cc2)c(=O)c2ccccc12 [Example 186, (1S,2R,5S)-5-methyl-2-(propan-2-yl)cyclohexyl[(3-{[(4-chlorophenyl)acetyl]amino}-4-oxo-3,4-dihydrophthalazin-1-yl)methyl]carbamate]
EC50: ≥ 31.6 µM
